Paper PMC7864078
Results are given in words; binding and its absence hold for the method and conditions named.

Target: RNase J1 C-terminal domain deletion construct (RNase J1ΔCTD, residues 1-450) (Staphylococcus epidermidis) (UniProt Q5HQ80)
Assay: SEC; analytical Superdex200; 250 μg of each freshly purified enzyme injected separately; 50 mM Tris-HCl pH 8.0, 250 mM NaCl, 10% glycerol, 4 mM β-ME, 0.5 mM TCEP, 5 mM MgCl2; both purified

- binding: no binding (tested: 250 μg injected)
Substance: RNase J1 C-terminal domain deletion construct (RNase J1ΔCTD, residues 1-450) (from UniProt Q5HQ80 1-450) (domain or fragment)
